{
  "source": "the supplement of paper PMC8426693",
  "note": "The other results are listed elsewhere or left out.",
  "data": [
    {"system": "SARS-CoV-2 3'-UTR RNA", "assay": "NMR binding call after quantification (hit when 2 of 3 NMR criteria are met) (binary (1 = binding, 0 = not binding)); higher = binding", "settings": "RNA concentration 10 µM; fragment concentration 200 µM; 293 K", "values": [
      {"compound": "CS(=O)(=O)NC1CCNCC1", "NMR binding call": 0},
      {"compound": "O=C(Nc1nccs1)C1CC1c1ccccc1", "note": "(stereo not drawn)", "NMR binding call": 0},
      {"compound": "Nc1ccccc1OCc1ccccc1", "NMR binding call": 0},
      {"compound": "CC(=O)c1ccc(OCC(=O)O)cc1", "NMR binding call": 0},
      {"compound": "O=C(Nc1nncs1)c1ccccc1F", "NMR binding call": 0},
      {"compound": "CCc1nnc(NC(=O)CN(C)C)s1", "NMR binding call": 0},
      {"compound": "O=C(NCCC1=CCCCC1)c1cnccn1", "NMR binding call": 0},
      {"compound": "CNC(=O)NCc1c(F)cccc1Cl", "NMR binding call": 0},
      {"compound": "CC(N)C(=O)N1CCCCC1C", "note": "(stereo not drawn)", "NMR binding call": 0},
      {"compound": "CC(C)NC(=O)N(C)C1CCS(=O)(=O)C1", "note": "(stereo not drawn)", "NMR binding call": 0},
      {"compound": "CC(O)CCn1cccn1", "note": "(stereo not drawn)", "NMR binding call": 0},
      {"compound": "N#Cc1ccc(CNCc2ccc(F)cc2)cc1", "NMR binding call": 0},
      {"compound": "CC(O)COc1cccc(F)c1", "note": "(stereo not drawn)", "NMR binding call": 0}
    ]},
    {"system": "SARS-CoV-2 3_SL1 RNA", "assay": "NMR binding call after quantification (hit when 2 of 3 NMR criteria are met) (binary (1 = binding, 0 = not binding)); higher = binding", "settings": "RNA concentration 10 µM; fragment concentration 200 µM; 293 K", "values": [
      {"compound": "O=C(Cc1ccc(F)cc1)NC1CCCCC1", "NMR binding call": 0},
      {"compound": "CC1CCNC(C(N)=O)C1", "note": "(stereo not drawn)", "NMR binding call": 0},
      {"compound": "Cc1nc(CC(=O)N2CCOCC2)cs1", "NMR binding call": 0},
      {"compound": "CC(=O)Nc1cccc2nonc12", "NMR binding call": 0},
      {"compound": "Cc1[nH]cnc1CN1CCc2ccccc2C1", "NMR binding call": 0},
      {"compound": "NC(=O)c1ccc(NC(=O)c2ccccc2)cc1", "NMR binding call": 0},
      {"compound": "Cc1cccc(NC(=O)C2CCCN2)n1", "note": "(stereo not drawn)", "NMR binding call": 0},
      {"compound": "CC(=O)NCCN1CCCCCC1", "NMR binding call": 0},
      {"compound": "Cn1cc(Oc2ncncc2Cl)cn1", "NMR binding call": 0},
      {"compound": "COc1ccc(Cl)cc1C(=O)NCC(C)C", "NMR binding call": 0},
      {"compound": "OCc1ccc(-n2cnc3ccccc32)cc1", "NMR binding call": 0},
      {"compound": "Clc1cccc(CN2CCOCC2)c1", "NMR binding call": 0},
      {"compound": "CC(C(N)=O)N1CCN(S(C)(=O)=O)CC1", "note": "(stereo not drawn)", "NMR binding call": 0},
      {"compound": "NC(=S)Nc1ccccc1OC(F)(F)F", "NMR binding call": 0},
      {"compound": "CCOC(=O)c1sc(N(C)C(C)=O)nc1C", "NMR binding call": 0},
      {"compound": "CC(C)(O)CN1CCC(N)C1", "note": "(stereo not drawn)", "NMR binding call": 0},
      {"compound": "c1cc(NCC2CCCO2)ccn1", "note": "(stereo not drawn)", "NMR binding call": 0},
      {"compound": "Cc1cc(C(=O)NCC2CCCO2)ns1", "note": "(stereo not drawn)", "NMR binding call": 0},
      {"compound": "CC(Oc1ccc(C#N)cc1)C(N)=O", "note": "(stereo not drawn)", "NMR binding call": 0},
      {"compound": "Cc1cnc(NC(=O)CCC2CCCC2)s1", "NMR binding call": 0},
      {"compound": "CN1CCC(Oc2cccc(F)c2)C1=O", "note": "(stereo not drawn)", "NMR binding call": 0},
      {"compound": "Cc1cccc(C(=O)N(C)C)c1C", "NMR binding call": 0},
      {"compound": "CNC1(C(N)=O)CCCC1", "NMR binding call": 0},
      {"compound": "Cc1ccc(CNC(=O)Cc2cccs2)cc1", "NMR binding call": 0},
      {"compound": "CN1CCN(C(=O)C2CCCO2)CC1", "note": "(stereo not drawn)", "NMR binding call": 0},
      {"compound": "Cc1nc(C(=O)N2CCCC2)c(C)s1", "NMR binding call": 0},
      {"compound": "CC(C)N(C)S(=O)(=O)N1CCNC(=O)C1", "NMR binding call": 0},
      {"compound": "CS(=O)(=O)NC1CCNCC1", "NMR binding call": 0},
      {"compound": "O=C(Nc1nccs1)C1CC1c1ccccc1", "note": "(stereo not drawn)", "NMR binding call": 0},
      {"compound": "Nc1ccccc1OCc1ccccc1", "NMR binding call": 0},
      {"compound": "CC(=O)c1ccc(OCC(=O)O)cc1", "NMR binding call": 0},
      {"compound": "O=C(Nc1nncs1)c1ccccc1F", "NMR binding call": 0},
      {"compound": "CCc1nnc(NC(=O)CN(C)C)s1", "NMR binding call": 0},
      {"compound": "O=C(NCCC1=CCCCC1)c1cnccn1", "NMR binding call": 0},
      {"compound": "CNC(=O)NCc1c(F)cccc1Cl", "NMR binding call": 0},
      {"compound": "CC(N)C(=O)N1CCCCC1C", "note": "(stereo not drawn)", "NMR binding call": 0},
      {"compound": "CC(C)NC(=O)N(C)C1CCS(=O)(=O)C1", "note": "(stereo not drawn)", "NMR binding call": 0},
      {"compound": "CC(O)CCn1cccn1", "note": "(stereo not drawn)", "NMR binding call": 0},
      {"compound": "N#Cc1ccc(CNCc2ccc(F)cc2)cc1", "NMR binding call": 0},
      {"compound": "CC(O)COc1cccc(F)c1", "note": "(stereo not drawn)", "NMR binding call": 0}
    ]}
  ]
}
